# Measurements published in US5710249 (dated 1998).
# Assay: general procedure: Boc solid-phase peptide synthesis; MBHA resin; DCC
# Settings: whole synthesis, CZE and RP-HPLC
substance,measurement,value
PEPTIDE1{[ac].[D-2NAL].[4Cl-D-Phe].[D-3PAL].S.[Aph(atz)].[D-Aph(atz)].L.[ILys].P.[dA].[am]}$$$$V2.0,final HPLC purity,about 97%

# Strings that start with PEPTIDE1 are HELM notation: dots part the residues, brackets hold end groups and non-standard residues.
